Data as given in PubChem BioAssay AID504764 (Drosophila RNAi Screening Center, 2011).
The deposit covers about 22,000 reagents; shown is an unselected part of those that have a named target and a result. Of all reagents, 403 (1.9%) were called active. 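Unnormalised raw counts per well; ratio z-scores behind the hit calls and whether each hit raises or lowers signal are not deposited.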 The numbers tell different reagents against one gene apart. Not stated in the record: the amount of reagent.

Assay: 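Knock-downs that raise or lower a Notch target reporter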 (primary screen)
Cells: Drosophila Kc167 cells
Knock-down reagent: long dsRNA against Drosophila genes
Timing: about 5 days (4 days dsRNA, then 24 h after transfection)
Conditions: transfection of constitutively active membrane-tethered Notch lacking the extracellular domain, read 24 h later
Detection: 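Light from a Notch-responsive E(spl)m3 luciferase reporter under active Notch, with control-promoter and no-Notch reporter wells to normalise; raw counts from paired wells a and b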
Reading the numbers: induced reporter light, run 1, well a and induced reporter light, run 1, well b: higher = more light from the Notch target reporter with active Notch; control promoter light, run 1, well a and control promoter light, run 1, well b: higher = more light from the viral control promoter (cell number, transfection, viability); uninduced reporter light, run 1, well a: higher = more light from the Notch target reporter without active Notch
Active means: 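Wells with low control signal or poorly matching duplicates excluded; duplicates averaged; per source plate, z beyond ±2 for induced/control log2 ratio or beyond ±1.8 for induced/uninduced marks a hit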
Meaning of the calls: active = modifier hit (raised or lowered Notch signal); inactive = not a hit

| gene | dsRNA no. | induced reporter light, run 1, well a | induced reporter light, run 1, well b | control promoter light, run 1, well a | control promoter light, run 1, well b | uninduced reporter light, run 1, well a | Outcome |
| --- | --- | --- | --- | --- | --- | --- | --- |
| pyd | 1 | 1.62e5 | 1.34e5 | 1.30e5 | 1.62e5 | 11280 | inactive |
| pyd | 2 | 1.12e5 | 1.32e5 | 85810 | 80985 | 9395 | inactive |
| pyd | 3 | 1.16e5 | 1.21e5 | 1.41e5 | 96720 | 8140 | inactive |
| pyd | 4 | 98605 | 1.23e5 | 1.00e5 | 83875 | 7970 | inactive |
| pyd | 5 | 1.37e5 | 1.21e5 | 99605 | 78190 | 9955 | inactive |
| pyd | 6 | 18675 | 31305 | 19505 | 16695 | 3692 | inactive |
| pyd | 7 | 91105 | 1.00e5 | 1.29e5 | 93855 | 6550 | inactive |
| pyd | 8 | – | – | – | – | – | inactive |
| Caf1-105 | 1 | 1.27e5 | 1.01e5 | 1.45e5 | 1.34e5 | 11885 | inactive |
| wol | 1 | 70200 | 96585 | 58685 | 67760 | 5455 | inactive |
| Tsp42Eg | 1 | 1.83e5 | 1.98e5 | 2.19e5 | 1.90e5 | 16585 | active |
| Plod | 1 | 1.10e5 | 1.04e5 | 72700 | 34965 | 10938 | inactive |
| Plod | 2 | 2.31e5 | 1.79e5 | 3.85e5 | 3.08e5 | 12215 | inactive |
| CG12688 (retired record) | 1 | 1.62e5 | 1.39e5 | 2.25e5 | 2.83e5 | 11045 | inactive |
| CG12688 (retired record) | 2 | 1.04e5 | 93040 | 1.51e5 | 1.51e5 | 7310 | inactive |
| CG6154 | 1 | 1.37e5 | 1.36e5 | 2.33e5 | 1.96e5 | 13125 | inactive |
| Tsp42Ek | 1 | 2.63e5 | 2.36e5 | 2.57e5 | 2.14e5 | 16910 | active |
| Cpr72Eb | 1 | 3.33e5 | 1.79e5 | 2.70e5 | 2.37e5 | 9515 | inactive |
| CG14185 | 1 | 1.03e5 | 1.03e5 | 1.09e5 | 83435 | 8970 | inactive |
| SMSr | 1 | 1.29e5 | 1.12e5 | 73560 | 40360 | 9690 | inactive |
| SMSr | 2 | 1.65e5 | 1.91e5 | 1.77e5 | 1.50e5 | 5540 | inactive |
| CG32147 | 1 | 1.55e5 | 1.66e5 | 1.54e5 | 1.90e5 | 13205 | inactive |
| CG32564 | 1 | 97780 | 86145 | 90720 | 72365 | 12828 | inactive |
| Cap-G | 1 | 83395 | 1.05e5 | 1.19e5 | 1.07e5 | 10045 | inactive |
| Cap-G | 2 | 1.15e5 | 1.33e5 | 1.49e5 | 1.33e5 | 10770 | inactive |
| Jhbp5 | 1 | 1.89e5 | 2.12e5 | 2.22e5 | 2.11e5 | 18695 | inactive |
| Fak | 1 | 1.25e5 | 85095 | 1.18e5 | 1.20e5 | 11270 | inactive |
| CG34155 | 1 | 65365 | 96885 | 1.60e5 | 1.28e5 | 8705 | inactive |
| Tmf | 1 | 1.59e5 | 1.53e5 | 2.68e5 | 2.14e5 | 13200 | inactive |
| CG14416 | 1 | 1.11e5 | 1.11e5 | 1.71e5 | 2.04e5 | 10305 | inactive |
| MFS16 | 1 | 43370 | 41345 | 34875 | 45140 | 3245 | inactive |
| pico | 1 | 1.10e5 | 1.05e5 | 1.04e5 | 1.17e5 | 10355 | inactive |
| Naglu | 1 | 2.09e5 | 1.95e5 | 2.11e5 | 2.76e5 | 15392 | inactive |
| CG34249 (retired record) | 1 | 1.26e5 | 1.38e5 | 2.18e5 | 2.39e5 | 13360 | inactive |
| CG1571 | 1 | 2.38e5 | 1.93e5 | 4.03e5 | 3.35e5 | 15105 | inactive |
| CG2150 | 1 | 1.86e5 | 1.80e5 | 2.51e5 | 3.05e5 | 11550 | inactive |
| CG18231 | 1 | 1.26e5 | 1.54e5 | 1.63e5 | 1.82e5 | 9695 | inactive |
| CG4161 | 1 | 1.24e5 | 1.45e5 | 1.35e5 | 1.67e5 | 9210 | inactive |
| Toll-7 | 1 | 21750 | 23245 | 28475 | 23590 | 4485 | inactive |
| Dhit | 1 | 93140 | 1.14e5 | 1.69e5 | 1.83e5 | 7745 | inactive |
| Pex2 | 1 | 1.24e5 | 1.04e5 | 78685 | 43660 | 9475 | inactive |
| Chd1 | 1 | 1.80e5 | 1.58e5 | 1.47e5 | 1.52e5 | 16525 | inactive |
| hpRNA:CR32207 | 1 | 2.01e5 | 1.91e5 | 2.92e5 | 2.25e5 | 17700 | inactive |
| Aasdh | 1 | 1.70e5 | 1.73e5 | 90835 | 1.31e5 | 23325 | inactive |
| DIP2 | 1 | 46705 | 54095 | 66225 | 76110 | 3240 | inactive |
| CG32271 | 1 | 62545 | 1.15e5 | 1.71e5 | 2.47e5 | 9370 | active |
| mei-9 | 1 | 1.40e5 | 1.23e5 | 2.56e5 | 2.70e5 | 9138 | inactive |
| Diap1 | 1 | 1330 | 838 | 3565 | 2820 | 238 | inactive |
| exd | 1 | 93115 | 90000 | 90215 | 85165 | 11642 | inactive |
| pug | 1 | 98670 | 92675 | 95995 | 67075 | 5020 | inactive |
| Ugt37C1 | 1 | 1.36e5 | 99790 | 92700 | 1.47e5 | 8885 | inactive |
| plx | 1 | 1.13e5 | 90240 | 55960 | 51690 | 8080 | inactive |
| plx | 2 | 41955 | 51020 | 37175 | 32990 | 3325 | inactive |
| gNacalpha | 1 | 1.16e5 | 1.14e5 | 1.19e5 | 1.01e5 | 11425 | inactive |
| CG5116 | 1 | 2.70e5 | 2.24e5 | 3.77e5 | 3.78e5 | 13155 | inactive |
| CG1146 | 1 | 88940 | 74500 | 1.29e5 | 1.63e5 | 8170 | inactive |
| CG34427 | 1 | 2.22e5 | 1.99e5 | 2.79e5 | 2.08e5 | 15140 | inactive |
| CNBP | 1 | 1.69e5 | 1.45e5 | 1.36e5 | 1.21e5 | 12638 | inactive |
| CNBP | 2 | 1.57e5 | 1.83e5 | 1.13e5 | 1.56e5 | 13685 | inactive |
| RpL29 | 1 | 44105 | 40230 | 40870 | 32895 | 2475 | inactive |
| CG12204 | 1 | 1.53e5 | 1.57e5 | 1.54e5 | 97480 | 10585 | inactive |
| CG10841 | 1 | 1.71e5 | 1.63e5 | 1.25e5 | 1.13e5 | 10510 | inactive |
| sds22 | 1 | 2.06e5 | 1.96e5 | 1.89e5 | 2.15e5 | 20265 | inactive |
| Sidpn | 1 | 2.56e5 | 2.20e5 | 1.79e5 | 1.81e5 | 16225 | inactive |
